Test results reported in patent US7060673B2 (LG Household and Health Care Ltd., priority 2001, dated 2006).

Experiment: general procedure: Fmoc solid-phase peptide synthesis; HMP resin; 1-hydroxy-benzotriazole (HOBT)
Conditions: whole synthesis, scale 0.25 mmol

Q: For KKKKKKKKKGKH, which isolated yield is on record?
A: approximately 30.5%

Plain letter strings leave the end groups untold.
